Data taken from patent US20230263729A1, “POLY(ETHYLENE GLYCOL)-BLOCK-POLY(PROPYLENE SULFIDE) NANOCARRIER PLATFORM FOR ENHANCED EFFICACY OF IMMUNOSUPPRESSIVE AGENTS” (Northwestern University, priority 2019, published 2023).
At least one compound was matched to its structure with a doubt left.

What was measured:
[1] = Celastrol quantification by HPLC: solubility, encapsulation efficiency, loading capacity, release; type: physicochemical
Protocol: Celastrol quantification—Celastrol solubility, encapsulation efficiency, and loading capacity were all assessed using high performance liquid chromatography (HPLC) using a Thermo Scientific C18 reverse phase column, with dimethylformamide (DMF) as the mobile phase at 0.5 mL/min. Area under the curve quantification of celastrol absorbance at 280 nm was performed using Thermo Fisher Chromeleon 7 software. A celastrol standard curve was constructed, with good linearity between celastrol concentrations of 2 mg/mL to 12.5 μg/mL, with 6.25 μg/mL being too close to the limit of detection for inclusion in the standard curve.
To determine the loading capacity of celastrol in micelles, defined here as the highest achievable mass of celastrol that can be stably loaded into 1 mg of micelles in 100 μL of 1×PBS, 1 mg of celastrol was added to 1 mg of PEG45-b-PPS20-Benzyl polymer in 500 uL THF in an HPLC vial. THF was removed by vacuum desiccation and micelles were formed via thin film rehydration with 100 μL of 1×PBS. […] Both samples (column filtered and unfiltered) were then lyophilized and redissolved in 200 μL DMF and celastrol content was quantified via HPLC.
To determine the encapsulation efficiency of celastrol in micelles, defined as the percentage of the originally added celastrol mass that is stably encapsulated in micelles after filtration to remove unencapsulated celastrol, micelles were formed as described above with variable amounts of celastrol, and were filtered using an LH-20 column. Filtered micelles were lyophilized and redissolved in 200 μL DMF and celastrol content was quantified via HPLC.
To determine the solubility of celastrol in aqueous buffer, 1 mg of celastrol was added to a glass vial along with 10 mL of 1×PBS. […] The lyophilized powder was resuspended in 200 μL DMF and celastrol was quantified via HPLC.
Celastrol release from micelles into 1×PBS with or without oxidative trigger was determined as follows. […] Absorbance at 424 nm, an absorbance peak for celastrol, were taken using a SpectraMax M3 plate reader using a 96-well plate.

NF-κB = NF-κB inhibition assay in RAW Blue cells (SEAP reporter); type: cell-based
Protocol: Inhibition assays—NF-κB inhibition by celastrol was assayed using RAW Blue cells (Invivogen), a stably transfected cell line derived from RAW 264.7 macrophage-like cells, which contain the gene for secreted alkaline phosphatase (SEAP) downstream of the NF-κB promoter. Cells were seeded into a 96 well plate at 50,000 cells per well. NF-κB signalling was induced using 100 ng/mL LPS, with celastrol-loaded micelles and free celastrol (0.1% THF in 1×PBS vehicle) added to the cells concurrent with LPS administration. All micelle formulations contained the same amount of polymer (15 mg/mL) but were loaded with variable amounts of celastrol, and free celastrol formulations were prepared to match the concentration of loaded celastrol within Cel-MC formulations. Free celastrol formulation were made by diluting celastrol stock solutions in THF with 1×PBS to reach the appropriate celastrol concentration and 0.1% THF in 1×PBS. Cells were incubated for 16 hours, as per assay instructions, before supernatant was collected for quantification of SEAP activity, as described by the manufacturer. Colorimetric quantification of SEAP activity was performed on an M3 plate reader (SpectraMax) at an absorbance wavelength of 630 nm.

TNF-α = TNF-α secretion ELISA in LPS-treated RAW 264.7 cells; type: cell-based; conditions: 6 hours
RAW 264.7 cells = experiment: RNAseq of LPS-treated RAW 264.7 cells; type: cell-based; conditions: 1 μg/mL celastrol; Padj<0.1
immune cell populations = experiment: Flow cytometric analysis of immune cell populations in treated ldlr−/− mice; type: in vivo; conditions: 33 μg/kg/week, IP
atherosclerotic plaques = experiment: Histological assessment of atherosclerotic plaques (Oil Red O); type: in vivo, ldlr−/− mice; conditions: weekly treatment, high fat diet

CC1=C(O)C(=O)C=C2C1=CC=C1[C@@]2(C)CC[C@@]2(C)[C@@H]3C[C@](C)(C(=O)O)CC[C@]3(C)CC[C@]12C [celastrol]
encapsulation efficiency of celastrol in PEG-b-PPS micelles ([1]; 7 mg of celastrol per 10 mg of polymer): 31.1±3.4%
encapsulation efficiency of celastrol in PEG-b-PPS micelles ([1]; celastrol loaded at 100 μg per 10 mg of polymer): 96.1±0.8%
release of celastrol from micelles into a 1×PBS sink ([1]; over 48 hours): 8.0±0.5%
inhibition of NF-κB signalling in RAW Blue cells treated with LPS (NF-κB): able to inhibit NF-κB signalling
inhibition of TNF-α production (TNF-α; 10 ng/mL celastrol): only partially (but still significantly) inhibits TNF-α production
TNF-α levels in the supernatant compared to cells treated only with LPS (TNF-α; 1 μg/mL celastrol): significantly decreased TNF-α levels
NF-κB target genes (pathway analysis) (RAW 264.7 cells): significantly downregulated
anti-inflammatory genes (lrp1, irf7, slpi) (RAW 264.7 cells): significantly upregulated
pro-inflammatory genes (il1b, tnf, nfatc1) (RAW 264.7 cells): significantly downregulated
changes in immune cell populations compared to blank MC (immune cell populations): muted effects
plaque area (ORO staining) compared to Blank MC control (atherosclerotic plaques): did not significantly reduce
